{
  "source": "PubChem BioAssay AID330",
  "about": "(DTP/NCI, 2004)",
  "system": "P388 leukemia ip, CD2F1 mice, survival T/C",
  "assay": "NCI In Vivo Anticancer Drug Screen. Data for tumor model P388 Leukemia (intraperitoneal) in CD2F1 (CDF1) mice",
  "settings": "T/C endpoint: median survival time, higher T/C = longer survival",
  "key": {"[1]": {"settings": "dose: 240.0 mg/kg/injection, schedule: Q01DX005 (ip), vehicle: saline"}, "[2]": {"settings": "dose: 100.0 mg/kg/injection, schedule: Q01DX005 (ip), vehicle: Klucel (hydroxypropylcellulose) (HPC)"}, "[3]": {"settings": "dose: 200.0 mg/kg/injection, schedule: Q01DX005 (ip), vehicle: Klucel (hydroxypropylcellulose) (HPC)"}},
  "note": "The list does not hold the whole screen: it gathers tests that were run many times, whatever their T/C, doses with no T/C, and many T/C values between a quarter and a half above the control. Further doses and runs are listed elsewhere. T/C: endpoint of the treated group in % of that of the vehicle group. Some entries give survivors of the animals treated and no T/C: the source files T/C as zero there, which appears to mark a toxic dose or a test without result, not a measured value. Some doses without a T/C left all or most animals alive at the check, yet need not have been tolerated: survival well below the control is almost never listed, so the zero probably covers shortened survival too. Counts of survivors are from the toxicity check (mostly the fifth day) where no day follows; animals may have died later. Schedules are NCI's codes, read here as Q, the interval in days (D) or hours (H), X, the number of doses. Some doses were run more than once; the values are given in rising order. Some structures stand for samples that the source files as different forms (salt, stereo form or complex); doses refer to the form tested. Where survival is the endpoint, this PubChem deposit counts one and a half times the control or more as active, and values a quarter to a half above the control carry no call in these data; other NCI protocols may use other cut-offs. Some T/C values are followed by the survivors on the day toxicity was checked, most often the fifth; where none is given, no animal had died by that day.",
  "data": [
    {"smiles": "COc1ccc(C(=O)C(CN2CCCC2)CN2CCCC2)cc1", "values": [
      {"measurement": "T/C", "setting": "dose: 30.0 mg/kg/injection, schedule: Q01DX005 (ip), vehicle: saline", "result": "128 % of control"},
      {"measurement": "T/C", "setting": "dose: 30.0 mg/kg/injection, schedule: Q01DX009 (ip), vehicle: saline", "result": "132 % of control"},
      {"measurement": "survivor count", "setting": "dose: 60.0 mg/kg/injection, schedule: Q01DX005 (ip), vehicle: saline", "result": "3 of 6"},
      {"measurement": "survivor count", "setting": "dose: 120.0 mg/kg/injection, schedule: Q01DX005 (ip), vehicle: saline", "result": "0 of 6"},
      {"measurement": "survivor count", "setting": "[1]", "result": "0 of 6"}
    ]},
    {"smiles": "CN1CCCC(CN2c3ccccc3Sc3ccccc32)C1", "note": "(stereo not given)", "values": [
      {"measurement": "survivor count", "setting": "dose: 200.0 mg/kg/injection, schedule: Q01DX005 (ip), vehicle: saline with Tween-80", "result": "3 of 6"}
    ]},
    {"smiles": "CC(CN(C)C)C(=O)/C=C/c1ccc(Cl)cc1", "note": "(stereo not given)", "values": [
      {"measurement": "survivor count", "setting": "[1]", "result": "0 of 6"}
    ]},
    {"smiles": "O=C(Nc1cccc(C(F)(F)F)c1)Nc1nccs1", "values": [
      {"measurement": "survivor count", "setting": "dose: 200.0 mg/kg/injection, schedule: Q01DX009 (ip), vehicle: Klucel (hydroxypropylcellulose) (HPC)", "result": "6 of 6"}
    ]},
    {"smiles": "COc1ccc2ccc3oc([N+](=O)[O-])cc3c2c1", "values": [
      {"measurement": "T/C", "setting": "dose: 50.0 mg/kg/injection, schedule: Q01DX005 (ip), vehicle: Klucel (hydroxypropylcellulose) (HPC)", "result": "132 % of control"},
      {"measurement": "T/C", "setting": "[2]", "result": "137 % of control"},
      {"measurement": "T/C", "setting": "[3]", "result": "132 and 136 % of control"}
    ]},
    {"smiles": "CC1[C@@H]2CC=C3[C@H]4CCC5Cc6nc7c(nc6C[C@@]5(C)C4(O)CC(=O)[C@]32CO[C@]12OC(C)(C)CC2O)CC1CC[C@@H]2C3=C[C@H]4O[C@@]5(O[C@@](C)(CO)C[C@@H]5O)C(C)[C@@]4(O)[C@]3(C)[C@@H](O)CC2[C@]1(C)C7", "note": "(stereo not given in full)", "values": [
      {"measurement": "survivor count", "setting": "dose: 0.06 mg/kg/injection, schedule: Q01DX009 (ip), vehicle: saline + alcohol", "result": "6 of 6"},
      {"measurement": "survivor count", "setting": "dose: 0.12 mg/kg/injection, schedule: Q01DX009 (ip), vehicle: saline + alcohol", "result": "3 of 6"},
      {"measurement": "survivor count", "setting": "dose: 0.25 mg/kg/injection, schedule: Q01DX009 (ip), vehicle: saline + alcohol", "result": "0 of 6"},
      {"measurement": "survivor count", "setting": "dose: 0.5 mg/kg/injection, schedule: Q01DX009 (ip), vehicle: saline + alcohol", "result": "0 of 5"},
      {"measurement": "T/C", "setting": "dose: 20.0 micrograms/kg/injection, schedule: Q01DX005 (ip), vehicle: saline + alcohol", "result": "127 % of control"},
      {"measurement": "T/C", "setting": "dose: 40.0 micrograms/kg/injection, schedule: Q01DX005 (ip), vehicle: saline + alcohol", "result": "127 and 135 % of control"},
      {"measurement": "survivor count", "setting": "dose: 80.0 micrograms/kg/injection, schedule: Q01DX005 (ip), vehicle: saline + alcohol", "result": "2 of 6 and 6 of 6"}
    ]},
    {"smiles": "NC(=O)c1ccnn1C1OC(CO)C(O)C1O", "note": "(stereo not given)", "values": [
      {"measurement": "survivor count", "setting": "dose: 128.0 mg/kg/injection, schedule: Q01DX002 (ip), vehicle: saline", "result": "2 of 4"}
    ]},
    {"smiles": "O=C(C1CC2CCN1CC2)N1CCN(C(=O)C2CC3CCN2CC3)CC1", "note": "(stereo not given)", "values": [
      {"measurement": "survivor count", "setting": "dose: 6.25 mg/kg/injection, schedule: Q01DX005 (ip), vehicle: saline", "result": "6 of 6"},
      {"measurement": "survivor count", "setting": "dose: 12.5 mg/kg/injection, schedule: Q01DX005 (ip), vehicle: saline", "result": "0 of 6"},
      {"measurement": "survivor count", "setting": "dose: 25.0 mg/kg/injection, schedule: Q01DX005 (ip), vehicle: saline", "result": "0 of 6"},
      {"measurement": "survivor count", "setting": "dose: 50.0 mg/kg/injection, schedule: Q01DX005 (ip), vehicle: saline", "result": "0 of 6"},
      {"measurement": "survivor count", "setting": "dose: 100.0 mg/kg/injection, schedule: Q01DX005 (ip), vehicle: saline", "result": "0 of 6"},
      {"measurement": "survivor count", "setting": "dose: 200.0 mg/kg/injection, schedule: Q01DX005 (ip), vehicle: saline", "result": "0 of 6"},
      {"measurement": "survivor count", "setting": "dose: 240.0 mg/kg/injection, schedule: Q01DX005 (ip), vehicle: saline with Tween-80", "result": "0 of 6"}
    ]},
    {"smiles": "O=C(/C=C/c1cccnc1)/C=C/c1cccnc1", "values": [
      {"measurement": "survivor count", "setting": "dose: 100.0 mg/kg/injection, schedule: Q01DX009 (ip), vehicle: Klucel (hydroxypropylcellulose) (HPC)", "result": "1 of 6"}
    ]},
    {"smiles": "Cc1cc(NCCCCCCCNc2cc(C)nc3cc([N+](=O)[O-])ccc23)c2ccc([N+](=O)[O-])cc2n1", "values": [
      {"measurement": "T/C", "setting": "dose: 3.13 mg/kg/injection, schedule: Q01DX009 (ip), vehicle: water", "result": "132 % of control"},
      {"measurement": "T/C", "setting": "dose: 6.25 mg/kg/injection, schedule: Q01DX009 (ip), vehicle: water", "result": "135 % of control"},
      {"measurement": "T/C", "setting": "dose: 12.5 mg/kg/injection, schedule: Q01DX009 (ip), vehicle: water", "result": "149 % of control"},
      {"measurement": "T/C", "setting": "dose: 25.0 mg/kg/injection, schedule: Q01DX009 (ip), vehicle: water, evaluated on day 30", "result": "137 % of control"},
      {"measurement": "T/C", "setting": "dose: 25.0 mg/kg/injection, schedule: Q01DX009 (ip), vehicle: water, evaluated on day 45", "result": "140 % of control"},
      {"measurement": "T/C", "setting": "dose: 37.5 mg/kg/injection, schedule: Q01DX009 (ip), vehicle: water", "result": "128 % of control [5 of 6 alive]"},
      {"measurement": "survivor count", "setting": "dose: 50.0 mg/kg/injection, schedule: Q01DX009 (ip), vehicle: water", "result": "3 of 6"},
      {"measurement": "T/C", "setting": "dose: 56.3 mg/kg/injection, schedule: Q01DX009 (ip), vehicle: water", "result": "128 % of control [4 of 6 alive]"},
      {"measurement": "survivor count", "setting": "dose: 100.0 mg/kg/injection, schedule: Q01DX009 (ip), vehicle: water", "result": "0 of 6"},
      {"measurement": "survivor count", "setting": "dose: 200.0 mg/kg/injection, schedule: Q01DX009 (ip), vehicle: water", "result": "0 of 6"},
      {"measurement": "survivor count", "setting": "dose: 400.0 mg/kg/injection, schedule: Q01DX009 (ip), vehicle: water", "result": "0 of 6"}
    ]},
    {"smiles": "Cc1noc(C)c1-c1onc2ccc(Cl)cc12", "values": [
      {"measurement": "survivor count", "setting": "dose: 50.0 mg/kg/injection, schedule: Q01DX009 (ip), vehicle: Klucel (hydroxypropylcellulose) (HPC)", "result": "6 of 6"}
    ]},
    {"smiles": "CCCCCCCCCCCCn1c2nc(=O)[nH]c(=O)c-2nc2ccccc21", "values": [
      {"measurement": "survivor count", "setting": "dose: 12.5 mg/kg/injection, schedule: Q01DX005 (ip), vehicle: saline with Tween-80", "result": "6 of 6"},
      {"measurement": "survivor count", "setting": "dose: 25.0 mg/kg/injection, schedule: Q01DX005 (ip), vehicle: saline with Tween-80", "result": "6 of 6"},
      {"measurement": "survivor count", "setting": "dose: 50.0 mg/kg/injection, schedule: Q01DX005 (ip), vehicle: saline with Tween-80", "result": "6 of 6"}
    ]},
    {"smiles": "c1cc(-c2nc3ccc(-c4nc5ccc(C6=NCCN6)cc5[nH]4)cc3[nH]2)ccc1C1=NCCN1", "values": [
      {"measurement": "survivor count", "setting": "dose: 25.0 mg/kg/injection, schedule: Q01DX005 (ip), vehicle: Klucel (hydroxypropylcellulose) (HPC)", "result": "3 of 6"},
      {"measurement": "survivor count", "setting": "[2]", "result": "0 of 6"},
      {"measurement": "survivor count", "setting": "[3]", "result": "0 of 6"}
    ]}
  ]
}
